Experimental data reported in US5589461A, “Active substance for inhibiting the proliferation rate of hepatocytes” (priority 1994, dated 1996).
Part of at least one peptide drawing is inferred or uncertain, most often the ends. Where a SMILES comes first, the peptide text is derived from it.

Tested on: hepatocytes
Test: proliferation rate of hepatocytes in rats after 66% partial hepatectomy (3H-thymidine, specific radioactivity of DNA)
Format: in vivo, rat
From the text: To carry out these experiments, young female Wistar rats weighing 100 g were used, which had been provided from the SPF animal house department of the Max-Planck-Instut fur Biochemie in D-82152 Martinstied.
Seven groups of rats were subjected to 66% partial hepatectomy. In each experimental group 4 animals were used. In a slight modification of the Higgins and Anderson method (Higgins, G. M., Anderson, R. M., Archives of Pathology 12 (1931), p. 186-202), the rats were submitted to partial hepatectomy between 13.00 h and 13.30 h. The tetrapeptide SDKP synthesized in the conventional way and dissolved in 1 ml of 0.9% NaCl was injected intraperitoneally (i.p.) to three groups immediately after operation and to three other groups 10 hrs after the operation, each three with different quantities (500 μg, 1 μg). The seventh group served as a control group, receiving the solvent only. […] The livers were conserved at -20° C. up to the time of determining the specific radioactivity of the DNA in the hepatocyte nuclei.
This specific radioactivity was used as a marker for the proliferation behaviour of the hepatocytes: Thymidine is incorporated only in DNA (not e.g. in RNA), and significant DNA synthesis is effected only during cell proliferation. The specific radioactivity of the DNA (in dpm/μg DNA) is the quotient of the result of radioactivity measurement of a sample (in dpm, i.e. disintegrations per minute) by the DNA content of that sample (in μg). The proliferation promoting or proliferation inhibiting character of the peptide (depending on the administered dose and the time of administration after partial hepatectomy) was determined by establishing the percentage of the specific radioactivity of the DNA in the hepatocyte nuclei of the experimental group as compared with the specific radioactivity of the control group associated with each experiment.
For determination of the specific radioactivity, the DNA was first extracted from the liver. […]
For measurement of the radioactivity, scintillation counting liquid was added to 1 ml of the extract, and ^3 H measurement was effected. […]

Question: Which results are given for `CC(=O)N[C@@H](CO)C(=O)N[C@@H](CC(=O)O)C(=O)N[C@@H](CCCCN)C(=O)N1CCC[C@H]1C(=O)O` [SDKP, N-Acetyl-Ser-Asp-Lys-Pro, reference compound] (Ac-SDKP-OH)?
Answer: effect on hepatocyte proliferation (1 μg i.p. 10 hrs after the operation): virtually not at all; effect on hepatocyte proliferation (8 μg i.p. 10 hrs after the operation): slightly proliferation inhibiting; effect on hepatocyte proliferation (500 μg i.p. 10 hrs after the operation): proliferation promoting effect
